In the supplement of paper PMC10849652:
This is one part of the list.

Amino acid sequences for entries named in this document (tags omitted). A change or cut given only in a name is not applied to a line headed by its entry.
UniProt O75330: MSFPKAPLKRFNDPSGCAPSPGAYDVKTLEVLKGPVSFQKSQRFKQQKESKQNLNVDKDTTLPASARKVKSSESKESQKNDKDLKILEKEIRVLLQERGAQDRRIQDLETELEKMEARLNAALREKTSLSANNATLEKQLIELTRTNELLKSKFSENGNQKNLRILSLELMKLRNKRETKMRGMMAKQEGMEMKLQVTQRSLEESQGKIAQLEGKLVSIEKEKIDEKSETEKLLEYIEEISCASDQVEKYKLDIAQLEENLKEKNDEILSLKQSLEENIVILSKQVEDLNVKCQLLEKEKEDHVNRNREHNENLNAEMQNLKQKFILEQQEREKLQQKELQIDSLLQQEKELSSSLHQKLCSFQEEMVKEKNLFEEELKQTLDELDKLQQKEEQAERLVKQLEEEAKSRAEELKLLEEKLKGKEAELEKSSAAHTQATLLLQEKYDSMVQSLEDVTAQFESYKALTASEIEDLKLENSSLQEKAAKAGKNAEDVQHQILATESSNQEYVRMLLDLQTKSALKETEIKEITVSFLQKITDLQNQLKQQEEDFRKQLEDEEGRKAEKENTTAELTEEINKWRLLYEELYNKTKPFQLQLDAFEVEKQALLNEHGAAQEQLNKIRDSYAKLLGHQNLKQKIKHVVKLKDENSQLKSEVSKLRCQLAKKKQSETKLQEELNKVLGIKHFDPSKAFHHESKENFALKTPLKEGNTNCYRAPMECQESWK
UniProt Q7LGA3: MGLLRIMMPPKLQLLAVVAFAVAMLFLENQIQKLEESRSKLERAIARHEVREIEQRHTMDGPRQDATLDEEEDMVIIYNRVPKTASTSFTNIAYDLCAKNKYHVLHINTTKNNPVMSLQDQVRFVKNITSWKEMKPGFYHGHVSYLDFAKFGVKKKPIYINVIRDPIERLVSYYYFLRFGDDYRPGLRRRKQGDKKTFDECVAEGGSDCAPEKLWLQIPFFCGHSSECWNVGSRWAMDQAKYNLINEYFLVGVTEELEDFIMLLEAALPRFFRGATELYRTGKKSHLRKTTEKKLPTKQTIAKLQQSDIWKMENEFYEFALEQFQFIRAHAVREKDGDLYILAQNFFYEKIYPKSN
UniProt Q96JB3: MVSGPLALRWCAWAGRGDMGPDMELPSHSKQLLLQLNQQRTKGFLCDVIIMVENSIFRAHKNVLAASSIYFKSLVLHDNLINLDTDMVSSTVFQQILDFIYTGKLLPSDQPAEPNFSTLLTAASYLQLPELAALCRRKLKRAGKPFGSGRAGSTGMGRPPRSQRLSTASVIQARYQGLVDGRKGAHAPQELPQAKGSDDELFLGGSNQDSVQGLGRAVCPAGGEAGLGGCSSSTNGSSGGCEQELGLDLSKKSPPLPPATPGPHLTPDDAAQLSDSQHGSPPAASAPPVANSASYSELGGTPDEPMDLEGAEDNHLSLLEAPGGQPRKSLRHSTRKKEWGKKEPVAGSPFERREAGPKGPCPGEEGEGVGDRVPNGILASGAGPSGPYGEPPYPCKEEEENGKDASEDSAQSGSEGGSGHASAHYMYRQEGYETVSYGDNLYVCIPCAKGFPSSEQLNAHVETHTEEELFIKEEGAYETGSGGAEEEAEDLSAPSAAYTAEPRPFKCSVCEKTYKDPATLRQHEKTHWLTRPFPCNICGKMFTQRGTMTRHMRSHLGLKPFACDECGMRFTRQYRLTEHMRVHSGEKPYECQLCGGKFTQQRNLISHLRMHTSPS
UniProt Q9NP66: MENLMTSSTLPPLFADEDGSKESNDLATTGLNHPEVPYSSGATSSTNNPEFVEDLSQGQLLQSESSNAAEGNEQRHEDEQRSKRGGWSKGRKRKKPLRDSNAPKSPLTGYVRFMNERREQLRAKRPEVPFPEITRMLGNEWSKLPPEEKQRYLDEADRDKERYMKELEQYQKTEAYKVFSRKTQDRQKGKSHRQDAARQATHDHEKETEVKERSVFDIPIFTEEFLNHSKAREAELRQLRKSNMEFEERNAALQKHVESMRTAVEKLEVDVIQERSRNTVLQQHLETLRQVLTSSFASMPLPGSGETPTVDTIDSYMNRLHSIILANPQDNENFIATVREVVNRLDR
UniProt O60921: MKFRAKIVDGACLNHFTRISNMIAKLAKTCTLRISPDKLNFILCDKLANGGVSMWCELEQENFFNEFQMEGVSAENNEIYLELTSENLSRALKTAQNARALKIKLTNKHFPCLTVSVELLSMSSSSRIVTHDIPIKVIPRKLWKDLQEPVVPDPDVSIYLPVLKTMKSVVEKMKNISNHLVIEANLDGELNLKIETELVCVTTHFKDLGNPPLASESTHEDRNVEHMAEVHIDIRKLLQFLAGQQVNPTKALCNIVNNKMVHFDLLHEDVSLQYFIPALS
UniProt P19367: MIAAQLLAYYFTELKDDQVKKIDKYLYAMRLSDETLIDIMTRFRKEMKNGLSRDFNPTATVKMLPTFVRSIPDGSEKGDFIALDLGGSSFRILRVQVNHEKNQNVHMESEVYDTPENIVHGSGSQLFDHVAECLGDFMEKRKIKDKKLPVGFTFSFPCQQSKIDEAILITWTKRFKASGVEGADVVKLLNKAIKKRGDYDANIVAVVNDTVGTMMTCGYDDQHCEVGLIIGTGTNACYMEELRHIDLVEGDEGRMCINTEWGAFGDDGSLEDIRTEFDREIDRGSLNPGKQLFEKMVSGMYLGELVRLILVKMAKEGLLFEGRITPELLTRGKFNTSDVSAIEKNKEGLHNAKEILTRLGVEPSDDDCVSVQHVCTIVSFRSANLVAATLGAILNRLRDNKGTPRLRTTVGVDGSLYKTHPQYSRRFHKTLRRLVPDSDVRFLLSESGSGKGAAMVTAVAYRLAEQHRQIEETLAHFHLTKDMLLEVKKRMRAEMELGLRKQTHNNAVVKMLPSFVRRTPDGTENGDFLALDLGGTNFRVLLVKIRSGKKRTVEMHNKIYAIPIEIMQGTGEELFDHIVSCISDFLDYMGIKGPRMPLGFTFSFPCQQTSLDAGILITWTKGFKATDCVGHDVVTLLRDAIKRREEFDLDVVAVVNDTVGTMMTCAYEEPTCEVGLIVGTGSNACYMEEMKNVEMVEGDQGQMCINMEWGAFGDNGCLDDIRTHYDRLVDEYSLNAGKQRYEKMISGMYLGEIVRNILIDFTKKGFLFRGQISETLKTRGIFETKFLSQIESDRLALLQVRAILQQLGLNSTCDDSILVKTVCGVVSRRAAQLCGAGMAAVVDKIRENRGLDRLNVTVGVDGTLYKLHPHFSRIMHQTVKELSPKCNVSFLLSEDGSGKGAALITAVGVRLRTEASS
UniProt Q9Y4L1: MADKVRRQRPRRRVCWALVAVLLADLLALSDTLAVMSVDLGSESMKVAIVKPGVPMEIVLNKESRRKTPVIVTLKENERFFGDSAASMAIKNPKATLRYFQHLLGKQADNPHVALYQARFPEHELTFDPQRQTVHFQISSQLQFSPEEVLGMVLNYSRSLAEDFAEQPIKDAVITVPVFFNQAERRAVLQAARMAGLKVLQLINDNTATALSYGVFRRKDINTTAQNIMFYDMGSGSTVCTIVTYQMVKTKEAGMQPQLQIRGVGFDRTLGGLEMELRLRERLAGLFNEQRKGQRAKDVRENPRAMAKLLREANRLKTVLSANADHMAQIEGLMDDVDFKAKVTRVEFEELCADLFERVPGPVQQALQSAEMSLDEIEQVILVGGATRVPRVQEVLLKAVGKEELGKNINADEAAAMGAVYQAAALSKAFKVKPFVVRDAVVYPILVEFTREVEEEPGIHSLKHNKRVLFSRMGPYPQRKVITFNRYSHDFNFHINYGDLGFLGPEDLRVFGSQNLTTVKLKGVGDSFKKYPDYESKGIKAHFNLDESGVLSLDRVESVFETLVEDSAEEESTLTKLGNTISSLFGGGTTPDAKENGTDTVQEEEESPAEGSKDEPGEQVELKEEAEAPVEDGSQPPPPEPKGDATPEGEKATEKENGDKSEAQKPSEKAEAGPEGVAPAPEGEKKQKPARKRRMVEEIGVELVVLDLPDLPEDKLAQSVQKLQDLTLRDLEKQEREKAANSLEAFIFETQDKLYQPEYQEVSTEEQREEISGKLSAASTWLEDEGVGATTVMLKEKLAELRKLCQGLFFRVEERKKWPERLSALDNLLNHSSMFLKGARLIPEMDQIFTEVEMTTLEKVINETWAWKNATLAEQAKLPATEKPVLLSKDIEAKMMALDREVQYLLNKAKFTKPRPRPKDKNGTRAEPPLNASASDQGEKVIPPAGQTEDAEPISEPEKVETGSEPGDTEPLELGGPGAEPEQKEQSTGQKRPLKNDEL
UniProt P34932: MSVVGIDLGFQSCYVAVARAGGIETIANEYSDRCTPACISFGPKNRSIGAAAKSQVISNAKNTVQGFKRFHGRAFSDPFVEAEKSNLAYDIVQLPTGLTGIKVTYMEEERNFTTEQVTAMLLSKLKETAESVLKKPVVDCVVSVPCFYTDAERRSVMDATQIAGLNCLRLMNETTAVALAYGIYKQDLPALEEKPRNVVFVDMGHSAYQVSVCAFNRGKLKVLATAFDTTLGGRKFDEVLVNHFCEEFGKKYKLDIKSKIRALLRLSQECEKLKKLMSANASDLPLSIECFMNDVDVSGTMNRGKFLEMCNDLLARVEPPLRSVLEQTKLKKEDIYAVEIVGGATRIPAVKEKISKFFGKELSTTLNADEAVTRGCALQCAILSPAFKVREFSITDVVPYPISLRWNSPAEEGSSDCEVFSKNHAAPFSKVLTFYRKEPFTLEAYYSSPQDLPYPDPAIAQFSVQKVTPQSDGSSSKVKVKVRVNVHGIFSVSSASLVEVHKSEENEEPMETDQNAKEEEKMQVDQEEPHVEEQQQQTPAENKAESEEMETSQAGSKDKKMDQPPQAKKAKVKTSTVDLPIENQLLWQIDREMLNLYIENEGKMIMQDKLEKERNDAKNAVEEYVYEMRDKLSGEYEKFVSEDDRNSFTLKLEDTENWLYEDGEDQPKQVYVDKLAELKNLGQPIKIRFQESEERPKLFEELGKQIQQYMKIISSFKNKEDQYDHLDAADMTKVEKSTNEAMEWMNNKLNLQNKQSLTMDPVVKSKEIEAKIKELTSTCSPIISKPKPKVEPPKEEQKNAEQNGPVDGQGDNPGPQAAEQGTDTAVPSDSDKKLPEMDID
UniProt Q8NBQ5: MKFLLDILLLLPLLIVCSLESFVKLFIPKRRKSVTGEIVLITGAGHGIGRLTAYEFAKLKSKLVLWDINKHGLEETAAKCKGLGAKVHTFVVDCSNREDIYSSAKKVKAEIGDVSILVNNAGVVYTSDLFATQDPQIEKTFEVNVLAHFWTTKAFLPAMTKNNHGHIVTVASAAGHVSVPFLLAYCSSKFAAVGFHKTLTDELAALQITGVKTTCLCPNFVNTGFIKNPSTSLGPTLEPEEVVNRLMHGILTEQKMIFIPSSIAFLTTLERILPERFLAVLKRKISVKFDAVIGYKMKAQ
UniProt O43719: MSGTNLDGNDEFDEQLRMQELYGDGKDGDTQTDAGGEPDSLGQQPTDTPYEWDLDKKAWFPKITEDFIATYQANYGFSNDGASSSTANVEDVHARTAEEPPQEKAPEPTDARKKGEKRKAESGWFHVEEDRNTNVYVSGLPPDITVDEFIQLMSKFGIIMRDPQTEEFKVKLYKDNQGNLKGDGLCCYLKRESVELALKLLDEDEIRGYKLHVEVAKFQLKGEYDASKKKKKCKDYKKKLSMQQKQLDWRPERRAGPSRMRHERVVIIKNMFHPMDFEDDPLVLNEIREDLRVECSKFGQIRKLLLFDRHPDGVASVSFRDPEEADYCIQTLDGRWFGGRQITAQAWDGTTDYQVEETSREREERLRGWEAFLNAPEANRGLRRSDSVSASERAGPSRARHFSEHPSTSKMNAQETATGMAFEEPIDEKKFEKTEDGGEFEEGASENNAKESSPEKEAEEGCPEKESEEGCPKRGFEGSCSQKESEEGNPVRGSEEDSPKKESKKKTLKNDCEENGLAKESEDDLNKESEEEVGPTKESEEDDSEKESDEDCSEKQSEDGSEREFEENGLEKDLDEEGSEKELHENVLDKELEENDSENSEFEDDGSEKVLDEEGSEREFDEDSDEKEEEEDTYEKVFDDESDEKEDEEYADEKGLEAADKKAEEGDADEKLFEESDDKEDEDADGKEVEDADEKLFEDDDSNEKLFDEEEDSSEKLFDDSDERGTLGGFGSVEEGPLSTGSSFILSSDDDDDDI
UniProt P09651: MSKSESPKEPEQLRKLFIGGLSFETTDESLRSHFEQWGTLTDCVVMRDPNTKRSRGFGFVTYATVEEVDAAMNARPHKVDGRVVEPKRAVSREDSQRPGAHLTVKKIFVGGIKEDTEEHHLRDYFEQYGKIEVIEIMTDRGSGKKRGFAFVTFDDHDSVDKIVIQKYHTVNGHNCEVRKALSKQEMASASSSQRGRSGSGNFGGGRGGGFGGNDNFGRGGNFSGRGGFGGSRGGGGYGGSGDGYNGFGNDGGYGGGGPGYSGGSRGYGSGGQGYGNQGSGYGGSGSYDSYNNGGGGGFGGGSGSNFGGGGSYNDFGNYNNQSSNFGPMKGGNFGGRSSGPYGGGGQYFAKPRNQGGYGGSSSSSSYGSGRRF

Experiments:
Experiment in all cases: log2 fold change, soluble protein after heating vs DMSO (PISA); higher = thermal stabilisation; K562 cells, 10 uM, 30 min; active = over 0.2 and 3.5 SD of the protein, either way, in both replicates (recomputed)
[1] = compound: NC(=O)Nc1cc(-c2cccc(F)c2)sc1C(=O)N[C@H]1CCCNC1
In short: (§1)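 Thermal stability values are relative to control samples and come from duplicates. They are expressed as log2 fold changes. For measurement, K562 cells (2×10^6 cells/mL) received 10 μM compound for 30 min, and aliquots were heated for 3 min over 48°C-58°C, pooled, and extracted at 4°C in PBS with 0.5% NP-40. Soluble protein, the supernatant after 21,000xg for 90 min, was quantified by TMTpro 16plex LC-MS/MS with equalised channel sums.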

[2] = compound: NC(=O)c1cnc(N[C@@H]2CCCC[C@@H]2N)nc1Nc1cccc(-n2nccn2)c1
In short: as §1

[3] = compound: NC1(c2ccc(-c3nc4ccn5c(=O)[nH]nc5c4cc3-c3ccccc3)cc2)CCC1
In short: as §1

[4] = compound: NCC(=O)Nc1ccc(-n2nc(C(F)(F)F)cc2-c2ccc3c(ccc4ccccc43)c2)cc1
In short: as §1

[5] = compound: Nc1ccccc1NC(=O)c1ccc(CNC(=O)OCc2cccnc2)cc1 [entinostat]
In short: as §1

[6] = compound: O=C(CCCCCCC(=O)Nc1ccccc1)NO [vorinostat]
In short: as §1

[7] = compound: O=C(CCCCCCNC(=O)c1cnc(N(c2ccccc2)c2ccccc2Cl)nc1)NO [citarinostat]
In short: as §1

[8] = compound: O=C(O)c1ccc2c(c1)nc(Nc1cccc(Cl)c1)c1ccncc12 [silmitasertib]
In short: as §1

[9] = compound: O=C1NC(=O)C(c2cnc3ccccn23)=C1c1cn2c3c(cc(F)cc13)CN(C(=O)N1CCCCC1)CC2
In short: as §1

[10] = compound: c1cc(OCCN2CCCCC2)cc(-c2n[nH]c3ccc(-c4nnc[nH]4)cc23)c1
In short: as §1

Measured: log2 fold change

HMMR isoform 3 (UniProt O75330)
inactive: [1] 0.009 | [2] -0.101 | [3] -0.058 | [4] -0.049 | [5] 0.063 | [6] 0.11 | [7] -0.002 | [8] 0.085 | [9] 0.101 | [10] -0.05

HS2ST1 (UniProt Q7LGA3)
inactive: [1] 0.011 | [2] 0.007 | [3] -0.022 | [4] 0.067 | [5] -0.014 | [6] 0.029 | [7] -0.008 | [8] 0.066 | [9] 0.022 | [10] -0.059

HSPG2 (UniProt P98160)
inactive: [1] 0.01 | [2] -0.078 | [3] -0.039 | [4] 0.019 | [5] -0.04 | [6] -0.011 | [7] 0.058 | [8] -0.039 | [9] 0.057 | [10] -0.114

HIST2H3A (UniProt Q71DI3)
inactive: [1] 0.032 | [2] 0.286 | [3] 0.46 | [4] -0.077 | [5] 0.196 | [6] 0.442 | [7] 0.006 | [8] -0.084 | [9] 0.07 | [10] -0.02

HMGCR isoform 3 (UniProt P04035)
inactive: [1] 0.184 | [2] -0.115 | [3] 0.048 | [4] -0.022 | [5] 0.082 | [6] -0.019 | [7] -0.175 | [8] -0.08 | [9] 0.15 | [10] 0.081

HIC2 (UniProt Q96JB3)
inactive: [1] -0.071 | [2] -0.06 | [3] 0.016 | [4] 0.101 | [5] -0.027 | [6] -0.027 | [7] -0.019 | [8] 0.098 | [9] 0.121 | [10] -0.233

HMG20A (UniProt Q9NP66)
inactive: [1] 0 | [2] 0.126 | [3] -0.054 | [4] -0.056 | [5] 0.064 | [6] 0.09 | [7] 0.072 | [8] 0.069 | [9] 0 | [10] -0.167

HNRNPC isoform 2 (UniProt P07910)
inactive: [1] -0.032 | [2] -0.049 | [3] 0.568 | [4] -0.037 | [5] 0.148 | [6] -0.041 | [7] -0.062 | [8] 0.199 | [9] 0.104 | [10] -0.252

HUS1 (UniProt O60921)
inactive: [1] -0.021 | [2] 0.022 | [3] -0.092 | [4] 0.031 | [5] -0.014 | [6] 0.026 | [7] 0.004 | [8] -0.014 | [9] -0.016 | [10] -0.041

HNRNPF (UniProt P52597)
inactive: [1] -0.015 | [2] 0.014 | [3] -0.11 | [4] -0.027 | [5] 0.137 | [6] 0.154 | [7] 0.07 | [8] 0.074 | [9] -0.104 | [10] -0.048

HK1 isoform 2 (UniProt P19367)
inactive: [1] 0.028 | [2] -0.008 | [3] -0.042 | [4] -0.021 | [5] 0.005 | [6] 0.01 | [7] 0.029 | [8] -0.007 | [9] -0.014 | [10] 0.006

HLTF (UniProt Q14527)
inactive: [1] -0.025 | [2] 0.037 | [3] -0.067 | [4] -0.043 | [5] 0.069 | [6] -0.012 | [7] 0.008 | [8] -0.095 | [9] -0.073 | [10] -0.101

HYOU1 (UniProt Q9Y4L1)
inactive: [1] 0.068 | [2] -0.011 | [3] -0.032 | [4] 0.049 | [5] 0.028 | [6] 0.002 | [7] 0.007 | [8] -0.006 | [9] 0 | [10] -0.073

HSPA4 (UniProt P34932)
inactive: [1] 0 | [2] -0.004 | [3] -0.05 | [4] -0.015 | [5] 0.006 | [6] -0.001 | [7] 0.036 | [8] 0 | [9] -0.006 | [10] 0.01

IBA57 (UniProt Q5T440)
inactive: [1] -0.019 | [2] 0.012 | [3] -0.11 | [4] -0.003 | [5] 0.01 | [6] -0.024 | [7] -0.018 | [8] -0.025 | [9] -0.004 | [10] 0.041

HSD17B11 (UniProt Q8NBQ5)
inactive: [1] -0.038 | [2] -0.013 | [3] -0.072 | [4] -0.007 | [5] -0.009 | [6] -0.046 | [7] 0.079 | [8] -0.013 | [9] -0.009 | [10] -0.014

HSPA8 (UniProt E9PK54)
inactive: [1] 0.015 | [2] 0.023 | [3] -0.071 | [4] -0.136 | [5] 0.061 | [6] -0.064 | [7] 0.068 | [8] 0.028 | [9] 0.093 | [10] -0.027

HTATSF1 (UniProt O43719)
inactive: [1] 0.024 | [2] -0.156 | [3] -0.213 | [4] -0.081 | [5] 0.104 | [6] 0.087 | [7] 0.106 | [8] 0.09 | [9] -0.083 | [10] 0.009

HSDL2 (UniProt Q6YN16)
inactive: [1] 0.005 | [2] -0.031 | [3] -0.123 | [4] -0.007 | [5] 0.055 | [6] 0.021 | [7] 0.095 | [8] -0.036 | [9] -0.076 | [10] -0.046

HMGB3 (UniProt O15347)
inactive: [1] 0.025 | [2] 0.153 | [3] 0.143 | [4] 0.136 | [5] -0.032 | [6] -0.044 | [7] -0.159 | [8] -0.068 | [9] -0.043 | [10] 0.146

Taken from the entries so far (2 entries):
HMMR isoform 3 (UniProt O75330)
inactive: [1] 0.009 | [2] -0.101 | [3] -0.058 | [4] -0.049 | [5] 0.063 | [6] 0.11 | [7] -0.002 | [8] 0.085 | [9] 0.101 | [10] -0.05

HS2ST1 (UniProt Q7LGA3)
inactive: [1] 0.011 | [2] 0.007 | [3] -0.022 | [4] 0.067 | [5] -0.014 | [6] 0.029 | [7] -0.008 | [8] 0.066 | [9] 0.022 | [10] -0.059

Continuation.

HSPBP1 isoform 3 (UniProt Q9NZL4)
inactive: [1] 0.003 | [2] -0.002 | [3] -0.152 | [4] -0.016 | [5] 0.021 | [6] 0.006 | [7] 0.044 | [8] 0.074 | [9] 0.039 | [10] -0.031

HNRNPA1 (UniProt P09651)
inactive: [1] -0.005 | [2] 0.051 | [3] 0.334 | [4] 0.088 | [5] -0.104 | [6] -0.014 | [7] -0.131 | [8] 0.225 | [9] 0.2 | [10] -0.183

HNRNPR isoform 2 (UniProt O43390)
inactive: [1] -0.046 | [2] 0.004 | [3] 0.188 | [4] 0.007 | [5] 0.007 | [6] 0.039 | [7] -0.078 | [8] 0.11 | [9] 0.128 | [10] -0.183

HK2 (UniProt P52789)
inactive: [1] 0.003 | [2] -0.012 | [3] -0.059 | [4] 0.016 | [5] 0.022 | [6] 0.048 | [7] 0.046 | [8] -0.021 | [9] -0.065 | [10] -0.059

HOMER1 (UniProt Q86YM7)
inactive: [1] 0.058 | [2] 0.007 | [3] -0.014 | [4] 0.032 | [5] 0.049 | [6] 0.059 | [7] 0.013 | [8] 0.119 | [9] 0.013 | [10] 0.024

HSP90AB1 (UniProt P08238)
inactive: [1] 0 | [2] 0.015 | [3] -0.066 | [4] -0.033 | [5] 0.015 | [6] 0.063 | [7] 0.036 | [8] -0.005 | [9] -0.022 | [10] -0.003

HIKESHI (UniProt Q53FT3)
inactive: [1] 0 | [2] -0.045 | [3] -0.046 | [4] -0.053 | [5] -0.003 | [6] -0.05 | [7] 0.021 | [8] 0.002 | [9] 0.026 | [10] -0.056

HSD17B7 (UniProt P56937)
inactive: [1] -0.011 | [2] 0 | [3] -0.186 | [4] -0.027 | [5] 0.027 | [6] 0.066 | [7] 0.098 | [8] 0.017 | [9] -0.082 | [10] -0.083

IARS2 (UniProt Q9NSE4)
inactive: [1] -0.021 | [2] 0.014 | [3] -0.009 | [4] 0.049 | [5] -0.038 | [6] -0.003 | [7] 0.027 | [8] 0.008 | [9] -0.015 | [10] 0.013

HMGB2 (UniProt P26583)
inactive: [1] 0.082 | [2] 0.04 | [3] 0.103 | [4] 0.081 | [5] 0.011 | [6] -0.035 | [7] 0 | [8] -0.11 | [9] -0.011 | [10] 0.126
